Experimental data reported in the supplement of paper PMC4604168 (melanoma cell lines).
The other results are listed elsewhere or left out. Many values rest on one well or one pass, so single values are uncertain.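 The apoptosis fraction was the count of cleaved-PARP antibody-stained nuclei relative to all DNA-stained nuclei, imaged in 1,536-well plates. Screening doses were set so most cells survived, and baseline and induced cleaved-PARP levels vary greatly across cell lines.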

Test system: RVH-421
Test: cleaved PARP positive nuclei fraction relative to DMSO control; melanoma cells; higher = more apoptosis
Details: library dose: low library concentration; 72 h

| Structure (SMILES) | cleaved PARP positive nuclei fraction |
| --- | --- |
| CCc1ccc(CCOc2ccc(CC3SC(=O)NC3=O)cc2)nc1 (stereo unspecified) [pioglitazone] + CCCCCCCCCCCC1=C(O)C(=O)C=C(O)C1=O [Embelin] (first compound 2 µM, partner dose 1.2 µM) | 82.8% |
| CN(C)S(=O)(=O)c1ccc2c(c1)/C(=C/c1cc3c([nH]1)CCCC3)C(=O)N2 + c1cc(-c2cnn3cc(-c4ccc(OCCN5CCCCC5)cc4)cnc23)ccn1 [Dorsomorphin] (first compound 0.4 µM, partner dose 0.4 µM) | 37.1% |
| O=C(Nc1ccccc1)c1cc([N+](=O)[O-])ccc1Cl + O=c1cc(-c2cccc3c2Sc2ccccc2S3)oc(N2CCOCC2)c1 [KU55933] (first compound 2 µM, partner dose 1 µM) | 24.6% |
| COc1cc2ncnc(Nc3ccc(Oc4ccccc4)cc3)c2cc1OC + O=C(O)C(=O)Nc1sc2c(c1C(=O)O)CCNC2 [TCS401] (first compound 2 µM, partner dose 1.66667 µM) | 17.5% |
| COc1ccc(-c2ccc3c(N4CCOCC4)nc(N4C[C@@H](C)O[C@@H](C)C4)nc3n2)cc1CO + Oc1nc(-c2ccc(C(F)(F)F)cc2)nc2c1CSCC2 [XAV939] (first compound 0.02 µM, partner dose 2 µM) | 120% |
| CN(NC(=O)CC(=O)NN(C)C(=S)c1ccccc1)C(=S)c1ccccc1 + CCc1ccc(CCOc2ccc(CC3SC(=O)NC3=O)cc2)nc1 [pioglitazone] (first compound 0.006 µM, partner dose 2 µM) | 96.6% |
